Here are results for 31 compounds from PubChem BioAssay AID330 (DTP/NCI, 2004).

The list is a part of this screen's results and no random one: it gathers tests that were run many times, whatever their T/C, doses with no T/C, and many T/C values between a quarter and a half above the control. Further doses and runs are listed elsewhere. T/C is the treated group as % of the vehicle group. Some doses have a count of surviving animals in place of a T/C: the source holds a T/C of zero for them, seemingly a mark for toxic or unscored doses. Some doses without a T/C left all or most animals alive at the check, yet need not have been tolerated: survival well below the control is almost never listed, so the zero probably covers shortened survival too. Counts of survivors are from the toxicity check (mostly the fifth day) where no day follows; animals may have died later. Schedule codes are those of the source, read here as Q, the interval in days (D) or hours (H), X, the number of doses. For survival time, the PubChem record calls one and a half times the control and up active, and a quarter to a half above the control has no call in these data; cut-offs in other NCI protocols can differ. Some T/C values carry the count of animals alive at the toxicity check (mostly the fifth day); without a count, all were alive then.

The subject of this assay is P388 leukemia ip, CD2F1 mice, survival T/C. The experiment in a line: NCI In Vivo Anticancer Drug Screen. Data for tumor model P388 Leukemia (intraperitoneal) in CD2F1 (CDF1) mice. The following applies: T/C endpoint: median survival time, higher T/C = longer survival.
The mark [1] stands for this setting: dose: 200.0 mg/kg/injection, schedule: Q04DX003 (ip), vehicle: saline with Tween-80.
[2] abbreviates: dose: 100.0 mg/kg/injection, schedule: Q01DX005 (ip), vehicle: saline with Tween-80.
The mark [3] stands for this setting: dose: 200.0 mg/kg/injection, schedule: Q01DX005 (ip), vehicle: saline with Tween-80.
Where [4] appears, read: dose: 240.0 mg/kg/injection, schedule: Q01DX005 (ip), vehicle: Klucel (hydroxypropylcellulose) (HPC).
Setting [5] is: dose: 200.0 mg/kg/injection, schedule: Q01DX009 (ip), vehicle: Klucel (hydroxypropylcellulose) (HPC).
[6] abbreviates: dose: 240.0 mg/kg/injection, schedule: Q01DX005 (ip), vehicle: saline with Tween-80.

As for `O=C(c1ccccc1)C(C(=O)c1ccccc1)C(c1ccccc1)(c1ccccc1)c1ccccc1`, the survivor count by setting is: (dose: 50.0 mg/kg/injection, schedule: Q04DX003 (ip), vehicle: saline with Tween-80) 6 of 6; under setting [1], 6 of 6.
For `NNc1nncc2ccccc12`, the survivor count runs as follows: (dose: 50.0 mg/kg/injection, schedule: Q04DX003 (ip), vehicle: saline) 6 of 6; (dose: 200.0 mg/kg/injection, schedule: Q04DX003 (ip), vehicle: saline) 0 of 6.
Turning to `OC(CCC(O)(C(F)(F)F)C(F)(F)F)(C(F)(F)F)C(F)(F)F`, the survivor count runs as follows: under setting [2], 0 of 5; under setting [3], 0 of 5.
As to `COc1ccc2c(ccc3c(N)ncnc32)c1`, the survivor count (dose: 400.0 mg/kg/injection, schedule: Q04DX002 (ip), vehicle: saline with Tween-80) was 2 of 6.
For the compound `CCCCCCCCCCCCCCCC1=NCCN1`, the survivor count under setting [3] was 2 of 5.
For the compound `COc1ccc(C(c2cc3c(cc2O)OCO3)N2CCN(C(c3cc4c(cc3O)OCO4)c3ccc(OC)cc3OC)CC2)c(OC)c1` (configuration not stated), under setting [4], the survivor count is reported as 6 of 6.
Consider `N=C(N)c1ccc(-c2ccc(-c3ccc(C(=N)N)cc3)s2)cc1`, for which the T/C was 130 % of control (dose: 50.0 mg/kg/injection, schedule: Q04DX003 (ip), vehicle: suspension in saline) and 127 % of control [5 of 6 alive] (dose: 100.0 mg/kg/injection, schedule: Q04DX003 (ip), vehicle: suspension in saline). For the same compound, the survivor count is, setting by setting: (dose: 200.0 mg/kg/injection, schedule: Q04DX003 (ip), vehicle: suspension in saline) 2 of 6; (dose: 400.0 mg/kg/injection, schedule: Q04DX003 (ip), vehicle: suspension in saline) 2 of 6.
In the case of `CCN(CC)CCN(CC)CC.O.[Cu+2].[O-][Cl+3]([O-])([O-])O`, the survivor count is, setting by setting: (dose: 50.0 mg/kg/injection, schedule: Q01DX009 (ip), vehicle: Klucel (hydroxypropylcellulose) (HPC)) 0 of 6; (dose: 100.0 mg/kg/injection, schedule: Q01DX009 (ip), vehicle: Klucel (hydroxypropylcellulose) (HPC)) 0 of 6; under setting [5], 0 of 6.
Regarding `Cc1ccc(NCCCC2CCCN3CCCCC23)c2c(=O)c3ccccc3sc12` (configuration not stated), the survivor count reads like this: (dose: 100.0 mg/kg/injection, schedule: Q01DX005 (ip), vehicle: distilled water + Tween-80) 4 of 6; (dose: 200.0 mg/kg/injection, schedule: Q01DX005 (ip), vehicle: distilled water + Tween-80) 0 of 6.
`CNC(=O)OCc1nc(SC)n(Cc2ccccc2)c1COC(=O)NC`: the T/C reads like this: under setting [3], 129 % of control; (dose: 400.0 mg/kg/injection, schedule: Q01DX005 (ip), vehicle: saline with Tween-80) 127 % of control.
In the case of `Cc1ccc(C)c2c(Nc3ccc4c(c3)OCO4)c(C(=O)O)cnc12`, under “dose: 240.0 mg/kg/injection, schedule: Q01DX005 (ip), vehicle: Klucel + Tween-80”, the survivor count is 6 of 6.
Regarding `Cc1cc(O)c2c(=O)c(=O)c2c1`, under setting [3], the survivor count is 1 of 6.
With `NC(=O)c1cn[nH]c1N`, for the setting “dose: 25.0 mg/kg/injection, schedule: Q01DX009 (ip), vehicle: saline”, the survivor count is on record as 5 of 6.
Regarding `COC(=O)c1cc(Cl)ccc1NCC(N)c1ccccc1` (configuration not stated), the survivor count is 6 of 6 (dose: 120.0 mg/kg/injection, schedule: Q01DX005 (ip), vehicle: saline with Tween-80) and 2 of 6 under setting [6].
Take `C[N+](C)(C)C.O=C([CH-]C(=O)C(F)(F)F)c1ccccc1.O=C([CH-]C(=O)C(F)(F)F)c1ccccc1.O=C([CH-]C(=O)C(F)(F)F)c1ccccc1.O=C([CH-]C(=O)C(F)(F)F)c1ccccc1.[Eu+3]`: under setting [5], the T/C is 125 % of control. The survivor count is on record as 1 of 6 (dose: 200.0 mg/kg/injection, schedule: Q01DX009 (ip), vehicle: saline with Tween-80) and 0 of 6 (dose: 400.0 mg/kg/injection, schedule: Q01DX009 (ip), vehicle: saline with Tween-80).
In the case of `CN1CCOC(c2ccccc2)c2ccsc2CC1` (configuration not stated), the survivor count under setting [6] is listed as 2 of 6.
As for `CCCNP1(NCCC)=NP(NCCC)(NCCC)=NP(NCCC)(NCCC)=NP(NCCC)(NCCC)=N1`, the survivor count is recorded as 4 of 6 under setting [2] and 0 of 6 under setting [3].
Regarding `CCN(CC)CC.CCOc1ccc(NC(=O)N=C=[N-])cc1.[CH-]1CCCCC1.[CH-]1CCCCC1.[CH-]1CCCCC1.[Cl-].[Sn+4]`, the survivor count (dose: 25.0 mg/kg/injection, schedule: Q01DX005 (ip), vehicle: Klucel (hydroxypropylcellulose) (HPC)) is reported as 0 of 6; the survivor count (dose: 50.0 mg/kg/injection, schedule: Q01DX005 (ip), vehicle: Klucel (hydroxypropylcellulose) (HPC)) was 0 of 6; the survivor count (dose: 100.0 mg/kg/injection, schedule: Q01DX005 (ip), vehicle: Klucel (hydroxypropylcellulose) (HPC)) is recorded as 0 of 6; the survivor count (dose: 200.0 mg/kg/injection, schedule: Q01DX005 (ip), vehicle: Klucel (hydroxypropylcellulose) (HPC)) is given as 0 of 6.
Regarding `Cn1ccn(CCCCCCn2ccn(C)c2=S)c1=S`, the survivor count reads like this: (dose: 6.25 mg/kg/injection, schedule: Q01DX009 (ip), vehicle: suspension in saline) 6 of 6; (dose: 12.5 mg/kg/injection, schedule: Q01DX009 (ip), vehicle: saline) 2 of 6; (dose: 25.0 mg/kg/injection, schedule: Q01DX009 (ip), vehicle: suspension in saline) 0 of 6; (dose: 50.0 mg/kg/injection, schedule: Q01DX009 (ip), vehicle: suspension in saline) 0 of 6; (dose: 100.0 mg/kg/injection, schedule: Q01DX009 (ip), vehicle: suspension in saline) 0 of 6; (dose: 200.0 mg/kg/injection, schedule: Q01DX009 (ip), vehicle: suspension in saline) 0 of 6.
On to `O=C(c1ccccc1)N1C=CN(C(=O)c2ccccc2)C(c2ccccc2)C1c1ccccc1` (configuration not stated), for which, under setting [4], the survivor count is given as 6 of 6.
For the compound `Cc1ccc(S(=O)(=O)OC2CCCCC2c2ccccc2)cc1` (configuration not stated), the survivor count by setting is: (dose: 6.25 mg/kg/injection, schedule: Q01DX001 (ip), vehicle: Klucel (hydroxypropylcellulose) (HPC)) 6 of 6; (dose: 50.0 mg/kg/injection, schedule: Q01DX001 (ip), vehicle: Klucel (hydroxypropylcellulose) (HPC)) 6 of 6; (dose: 100.0 mg/kg/injection, schedule: Q01DX001 (ip), vehicle: Klucel (hydroxypropylcellulose) (HPC)) 6 of 6; (dose: 200.0 mg/kg/injection, schedule: Q01DX001 (ip), vehicle: Klucel (hydroxypropylcellulose) (HPC)) 6 of 6.
For `CCC1COC(Nc2cccc3c2CCCC3)=N1` (configuration not stated), the survivor count (dose: 400.0 mg/kg/injection, schedule: Q01DX001 (ip), vehicle: saline with Tween-80) is given as 2 of 6.
With `CCN(CC)CCCC(C)Nc1cc(C)nc2c1ccc1c2ccc2c(NC(C)CCCN(CC)CC)cc(C)nc21` (configuration not stated), the survivor count (dose: 50.0 mg/kg/injection, schedule: Q01DX009 (ip), vehicle: distilled water + Tween-80) is on record as 1 of 6 and the survivor count (dose: 100.0 mg/kg/injection, schedule: Q01DX009 (ip), vehicle: distilled water + Tween-80) is recorded as 0 of 6.
In the case of `CC1(C)OC(=O)N=C1c1ccc(Br)cc1`, the survivor count under setting [4] is 5 of 6.
As for `Nc1nc(SCc2ccccc2Cl)c2[nH]cnc2n1`, the survivor count by setting is: under setting [1], 5 of 6; (dose: 400.0 mg/kg/injection, schedule: Q04DX003 (ip), vehicle: saline with Tween-80) 5 of 6.
Consider `O=C(/C=C/c1ccc(Cl)c(Cl)c1)C1CCCCC1`, for which, under setting [5], the survivor count was 5 of 6.
Consider `CCN(CC)CCNC1CC2CCC1(C)C2(C)C` (configuration not stated), for which the survivor count under setting [3] is 0 of 6.
Take `CS/C(=C(\C#N)C(N)=O)N1CC1`: the survivor count (dose: 400.0 mg/kg/injection, schedule: Q04DX002 (ip), vehicle: DMSO) is reported as 0 of 3.
On to `Nc1nc2nc(/N=N/SCCC(=O)O)[nH]c2c(=O)[nH]1`, for which the survivor count under setting [3] was 3 of 6.
`C/C(=N\NC(=S)N1CCN(C2CCCCCC2)CC1)c1ccccn1`: the survivor count is reported as 5 of 6 (dose: 12.5 mg/kg/injection, schedule: Q01DX005 (ip), vehicle: saline with Tween-80); 4 of 6 (dose: 25.0 mg/kg/injection, schedule: Q01DX005 (ip), vehicle: saline with Tween-80); 4 of 6 (dose: 50.0 mg/kg/injection, schedule: Q01DX005 (ip), vehicle: saline with Tween-80); 0 of 6 under setting [2]; 0 of 6 under setting [3].
In the case of `CCCCCCCC(=O)NCCCC(C)Nc1cc(OC)cc2cccnc12` (configuration not stated), the survivor count under setting [6] is 0 of 6.
